Assay results taken from PubChem BioAssay AID1347423 (Functional Genomics Laboratory (NCATS/FGL), 2020).
The whole screen tested about 52,000 sequences, of which about 210 (0.4%) were called active.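 Rule for the calls: active = gene whose silencing raises cell survival under the drug, median off-target-corrected z-score across its silencing RNAs 2 or more; inactive = the rest.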 The list shows a part of the results.

assay: Resistance to Poly (ADP-Ribose) Polymerase inhibitor: Gene Identification via Genome-wide siRNA Screen; settings: mouse BRCA2 R2336H ES cells, olaparib, CellTiter-Glo viability; active compounds read high
Summary of the method: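 Genome-wide siRNA screen (3 siRNAs/gene, 20 nM) in mouse ES cells carrying hypomorphic BRCA2 R2336H; olaparib 500 nM added 48 h post-transfection, CellTiter-Glo viability 72 h later. Normalized to plate-median negative control; MAD z-scores, gene median, seed-adjusted.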

Sequence	z-score
GGUCCUACUGAAAACGCAUTT against 6330442E10Rik	inactive: 0.452
GACAAAUAGUGCAGGAGGATT against 2310069N01Rik	inactive: 0.444
GCGAGCUCGAUUGAAAACUTT against Dlgh3	inactive: 1.23
GGACAUGUGGAAAUGGAUATT against Arhgap4	inactive: 0.234
GCCAAUAGCUCCAGCUUGATT against Olfr668	inactive: -0.256
CCGAAGCCUUGAAAGCAGUTT against 2810403P18Rik	inactive: 1.33
GGAGUGUUUAAAAGAGAAGTT against Mns1	inactive: -0.443
CCAGAAUUUGUGAAAUCCGTT against Dner	inactive: 1.76
GGUGUUGGAGCAGCUCACATT against Rpl11	inactive: -1.55
GCCCAUGAAUUUUUACUUATT against C330019G07Rik	inactive: 0.714
GGACACCUGAAGUUAGUUUTT against Ndufaf1	inactive: 0.752
GGAAUCAUUAAAACUCUCCTT against Ccr3	inactive: -0.071
CCGUUGGAGGUAAUUAGGATT against Dot1l	inactive: 1.03
GGAGUCCACUAAAGUCCUATT against Fmnl3	inactive: -0.887
CCACUAUGUUCUCUGGAUATT against Llglh	inactive: -0.783
GCGCGCUAAAAUGGAUGGCTT against Kng2	inactive: 0.346
GGAUUUUGCACUAUAACAATT against Wig1	inactive: 1.52
GGAAGAAGAAGAUAAAGCGTT against Gprk6	inactive: 0.408
GAAAGCAUUUAAUGCCCAATT against V1rg7	inactive: 0.125
GUACACUCAGGCUGAGGGUTT against Acyp1	inactive: -1.09
GCUCAUUUGUUUCCAAUAATT against Maf1	inactive: -0.212
GGUCGAAAGUCAACUCAGUTT against BC045600	inactive: -0.0753
GCGAAAGACGAUCAAAACCTT against Scn1a	inactive: 0.909
CCUUAUCUAUAACUCUGCUTT against Tirap	inactive: 1.31
GCUAUAUAAAGGCUGAGUATT against Emilin3	inactive: 0.704
GGUCAUGAACUUCACAAUUTT against Sgcd	inactive: 1.42

Exported field by field: part of the list above
GCGAGCUCGAUUGAAAACUTT against Dlgh3
  z-score: inactive: 1.23
GGAGUGUUUAAAAGAGAAGTT against Mns1
  z-score: inactive: -0.443
GGAGUCCACUAAAGUCCUATT against Fmnl3
  z-score: inactive: -0.887

Some of the entries so far, as labelled records:
CCGUUGGAGGUAAUUAGGATT against Dot1l
  z-score: inactive: 1.03
GGAGUCCACUAAAGUCCUATT against Fmnl3
  z-score: inactive: -0.887
CCACUAUGUUCUCUGGAUATT against Llglh
  z-score: inactive: -0.783
GCGCGCUAAAAUGGAUGGCTT against Kng2
  z-score: inactive: 0.346

Next records follow.

Sequence	z-score
GGAAAUAUUACCUUUGUACTT against Sp3	inactive: -1.12
AGUUCACGUAGAACCACGCTT against Gm741	inactive: -0.322
GGAAGUGAACCAGUUGAGATT against Pcdh7	inactive: 1.79
GGCAAUGUGUGUCUACAGUTT against 4933411G11	inactive: -0.0784
GCACCUGGGCCUUUGAAUATT against Hes2	inactive: 0.29
CGAACGUGAUGAGUUAUGGTT against V1rg8	inactive: -0.455
CAAUAACACUGGUGCCGACTT against LOC384813	inactive: -0.00154
GGCUUGUAAUCCUAGAUGUTT against Uble1a	inactive: -1.42
GGGAAUUAAACAAUAUUGCTT against Cd163	inactive: 0.626
GGACCAGAAUGCAACUCUUTT against Pex5	inactive: -0.875
GGUGCCUGACCAAAAAGGATT against A830094I09Rik	active: 2.67
CCCACGGACUGGCCAGUAATT against 6430559E15Rik	inactive: -1.39
CGCAUCCUAAGAAAUGACATT against Blvrb	inactive: -0.0364
GGAAGUUCUUCCUAAGUACTT against Hsf2	inactive: -1.62
CCAAAUACUGUUCAAGAUGTT against Lypla1	inactive: 0.0916
GGCAGUAGAUGAAAAUAAATT against Nphp1	inactive: 0.483
CGCAGGUAAUUUGUUUGUGTT against Mtnr1b	inactive: 0.0788
GGAAAAAGCCAACAAUUUGTT against Spats1	inactive: 0.851
GGAGAUAAUCCUGAAUGGCTT against Hsd3b6	inactive: -0.764
GCGGUCUUUCUUUCUUCGATT against Sim2	inactive: 2.35
GGCCAGAGUAGCAACUGUATT against Mcpr1	inactive: 1.19
GGAAUUCCAUUCCAGUCGCTT against 1700012L04Rik	inactive: 0.605
GCACCGGAUUGAUUUUGUCTT against Pcyt1a	inactive: -0.342
CGUGAAGAUGACCGAUGAUTT against Rpl10a	inactive: -3.15
CGGGCUCACAGUUUCUACUTT against Ethe1	inactive: -0.394
CGCGAUCAUAGAUUGGGCUTT against Sec61b	inactive: -0.637

Sequence	z-score
GGAACAAAGAUGUGUCUGGTT against Olfr31	inactive: -0.234
CCUCUAGUAAAGAAAUAGATT against 2610019N13Rik	inactive: -2.5
CGCAUUACUAUCACCAAAGTT against Samd4	inactive: 0.265
CCACAGGGACAACAAACUATT against Arid3b	inactive: 1.49
GGAAAUUUUUCGCAUGACCTT against Bat1a	inactive: -0.649
GCCGCUAGCAUGGUCUAUUTT against Apoa5	inactive: 0.129
GGCCGUGACAAAAUAGUAGTT against V1re3	inactive: -0.841
GCUUUUAUGCCACAAAUGATT against Pon1	inactive: -0.178
GGAAAGACAUGUAAUAUGUTT against 0610038F07Rik	inactive: 1.05
GGUUUUACUCCUUUAAUGUTT against Cbfa2t3h	inactive: 0.835
GGCUCAGAUCAAGCCAAAGTT against Cldn10	inactive: 1.1
CCAGGCUAUUUGUAUGCUGTT against C030002J06Rik	inactive: -0.0319
GGAUGAUGUGAUGAAGAUCTT against Fgfr4	inactive: -0.773
GCCAAAUACUUUUUUACCCTT against Slc38a2	inactive: 1.96
GGCCUUUUUUCUAUAUCUATT against Galnt3	inactive: 1.24
GGCAUCUCUAUCAAGUUGCTT against Rps17	inactive: -2.26
GUUGUGCAAUCAACAAGGUTT against 1110006G06Rik	inactive: 1.54
GGGAGCUGCUAAAAUAAACTT against Mtcp1	inactive: -0.326
GGAGAACAUGUUGAAGUAUTT against Atp8a1	inactive: 0.629
GGUCGAGUGCAAGUUGAAGTT against Taf13	inactive: 0.614
GGCAUUGAAUUAAAGAUACTT against Myct1	inactive: -0.0513
GGCCAAAGUCCACACAAGUTT against Asahl	inactive: -1.12
GCUCACAUUGAGUGGUUGGTT against 1200014J11Rik	inactive: -0.795
GCGGGUUAUUAACAUAUUUTT against Dlgh1	inactive: 0.646
GGAGGCAGAGAAGAUGAAATT against Pacsin3	inactive: 1.96
GGUAUUUCACUGGUUACGUTT against B3galt1	inactive: -0.64

Sequence	z-score
CCUGUACUGAACUACUUGATT against Kctd5	inactive: 0.352
GGGAAAACCAUACAAAAUATT against Olfr228	inactive: -0.201
GACAGUUAACCUUUUAAGATT against 1810008A14Rik	inactive: 0.559
GGAUCUUAUUACUUCAAUGTT against AW547365	inactive: -0.411
CCAGUGGAUGAGGUCAUUGTT against 1110061N23Rik	inactive: -2.37
GCUUACCAAAAGGAUAUCCTT against 1110060O18Rik	inactive: 0.372
GGUUUUAGACAUUCAGAACTT against Eif2c4	inactive: 0.711
CCGUGGAUUAUUUUCAACGTT against Hcn1	inactive: -0.206
GGACUUCUACGACUUCAAGTT against Gpx7	inactive: 0.125
GGAAGUACAGAAUUUUGAATT against 2010005O13Rik	inactive: -0.388
CCAACAAAUUCAAUCAGGCTT against Nrip3	inactive: -0.621
GGGAUAUGUGACUAUGUUATT against Slc5a7	inactive: 2.63
GGCUUUAAUGAAAUUAUGGTT against Gm592	inactive: -0.345
CCUCCUACAUGUUCACAUUTT against Olfr1367	inactive: 1.47
GGUGUCUCUCUAUGAUUUATT against Otoa	inactive: 1.68
GGUAUAAAAGGUUGCCAAATT against Efnb2	inactive: 0.508
CCCGAGAAUGACUAUGAAGTT against Grid2ip	inactive: 0.165
GCAUCAUUAGUGGUGUAACTT against 6530402N02Rik	inactive: 1.22
GGGCCUUUGAAAACACCCUTT against AI841987	inactive: 0.485
GGUUCAACAUGAAAAUGAUTT against B230217C06Rik	inactive: -0.0916
GGCCUUGGGAAGGAAAGAGTT against Mospd1	inactive: -1.74
GGGCAAGCCGGUUUCAUUUTT against Col16a1	inactive: -1
GGUCAGAUGUUCUGGAAAATT against Ctsj	inactive: -0.836
GGAGAAUGACACCAGGUCUTT against Arc	inactive: -0.361
GGUGGAGAAAUCUGCUAAUTT against Lta4h	inactive: -0.489
GGAUGAAAGAGCUAUUCUUTT against Cnot8	inactive: 3.22
